A short description of data set [1]: general procedure: Fmoc solid-phase peptide synthesis; NovaSyn TGA. The conditions noted are these: whole synthesis.
Data set [2] is described as follows: general procedure: Fmoc solid-phase peptide synthesis; NovasynTG.

The record followed here is patent publication US9416173B2 (priority 2011, dated 2016).

Substance “AcYGKDVKDLFDYAQE(SEQ ID NO:1)-TEG-K(SATA)-OH” yielded an isolated yield in data set [1] of 27.1%.
On to “HS(CH2)2CO-YGKDVKDLFDYAQE(SEQ ID NO:1)-TEG-K(SATA)-OH”, for which, in data set [2] (whole synthesis, scale 46 μmol), the crude mass worked out at 40 mg, the crude yield was found to be 41%, the isolated mass is recorded as 24 mg and the isolated yield came out at 24%.
In turn, “βMan3-S(CH2)2CO-YGKDVKDLFDYAQE(SEQ ID NO:1)-TEG-K(SATA)-OH” came in with a conjugation yield in data set [2] (conjugation step) of 69%.
